Where no end group is shown, it is not given here.
Assay: general procedure: Fmoc solid-phase peptide synthesis; HMP resin
Conditions: whole synthesis, scale 0.25 mmol

For “Ac-EEMQRRNGSLNTHLAPIL (N-terminus assumed)”, the isolated yield was “about 30±5%”.
